This note sets out measurements from patent US11433099B2, “Immunotherapy with B*08 restricted peptides and combination of peptides against cancers and related methods” (Immatics Biotechnologies GmbH, priority 2018, dated 2022).

For one data set, the system named is HLA peptide pools from tumor and normal tissue samples. Kind of data set: Identification and relative LC-MS quantitation of HLA-presented tumor associated peptides (presentation profiles). Particulars: FIGS. 1A to 1L; N=38 normal samples, N=91 tumor samples. On the set-up: species or system human.
As to “DLQKKAQAL (listed as Homo sapiens) [SEQ ID NO: 30]”, the “over-presentation in HLA-B*08 cancer tissues compared to a panel of HLA-B*08 normal samples” value is on record as “over-presentation”.
As for “DLRKLKRQL (listed as Homo sapiens) [SEQ ID NO: 53]”, the “over-presentation in HLA-B*08 cancer tissues compared to a panel of HLA-B*08 normal samples” value is reported as “over-presentation”.
“DIKKTNESL (listed as Homo sapiens) [SEQ ID NO: 23]”: the “over-presentation in HLA-B*08 cancer tissues compared to a panel of HLA-B*08 normal samples” value was “over-presentation”.

Staying with this data set, now noted: cancer entities on which the peptide was found presented (Table 8A); value = entity abbreviations.
As for “239 (SEPVMRVTL; listed as Homo sapiens) [compound 239]”, the “Peptide Presentation on cancer entities” value is “HNSCC”.
With “215 (NPLIEIISI; listed as Homo sapiens) [compound 215]”, the “Peptide Presentation on cancer entities” value was “SCLC”.
As to “109 (IPASHPVLTL; listed as Homo sapiens) [compound 109]”, the “Peptide Presentation on cancer entities” value is on record as “NSCLCother”.
For “13 (EPFTRPVL; listed as Homo sapiens) [compound 13]”, the “Peptide Presentation on cancer entities” value is “OSCAR, PACA, RCC, SCLC, UBC”.
For “41 (RGALRTLSL; listed as Homo sapiens) [compound 41]”, the “Peptide Presentation on cancer entities” value was “NSCLCadeno, UEC”.
For “220 (LAVRHLSL; listed as Homo sapiens) [compound 220]”, the “Peptide Presentation on cancer entities” value is “CCC”.
On to “116 (FTQNPRVQL; listed as Homo sapiens) [compound 116]”, for which the “Peptide Presentation on cancer entities” value was “MEL”.
Take “120 (AQRSEMVTL; listed as Homo sapiens) [compound 120]”: the “Peptide Presentation on cancer entities” value is “NSCLCsquam”.
The same measure, in the same setting: under “10 (MGKFKQCF; listed as Homo sapiens) [compound 10]” stands “UEC”.
With “1 (ALKLKVAEL; listed as Homo sapiens) [compound 1]”, the “Peptide Presentation on cancer entities” value was “NSCLCadeno, NSCLCsquam”.
The same measure, in the same setting: under “73 (MFPARGVPL; listed as Homo sapiens) [compound 73]” stands “NSCLCsquam”.
The same measure, in the same setting: under “172 (PYEKVSRL; listed as Homo sapiens) [compound 172]” stands “CCC”; under “186 (DLISPRQPRL; listed as Homo sapiens) [compound 186]”, “HNSCC”; under “224 (LPYPPQKVV; listed as Homo sapiens) [compound 224]”, “GBM”.
As for “136 (KMFYRKDVM; listed as Homo sapiens) [compound 136]”, the “Peptide Presentation on cancer entities” value is recorded as “GBC”.
Consider “189 (APDNVLLTL; listed as Homo sapiens) [compound 189]”, for which the “Peptide Presentation on cancer entities” value was “BRCA, GBM, HCC, NSCLCsquam, OSCAR, SCLC”.
Still for that read-out and setting: under “118 (MAFVKHLL; listed as Homo sapiens) [compound 118]” stands “MEL”; under “164 (LPAPIPTLL; listed as Homo sapiens) [compound 164]”, “NSCLCother”.
Same read-out and setting: under “129 (HRILRLPAL; listed as Homo sapiens) [compound 129]” stands “MEL”; under “148 (DVNPVSLQL; listed as Homo sapiens) [compound 148]”, “HNSCC, NSCLCother”; under “147 (HAMDGASHL; listed as Homo sapiens) [compound 147]”, “MEL”.
As for “44 (HLTNRVLSL; listed as Homo sapiens) [compound 44]”, the “Peptide Presentation on cancer entities” value was “HNSCC, NSCLCsquam”.
The same measure, in the same setting: under “122 (ESSAQPTAL; listed as Homo sapiens) [compound 122]” stands “GBM, HNSCC”.
The same measure, in the same setting: under “251 (DAAAFFKSV; listed as Homo sapiens) [compound 251]” stands “GBM”; under “144 (IEQIRAVL; listed as Homo sapiens) [compound 144]”, “HNSCC”.
